Test results as given in PubChem BioAssay AID504847 (National Center for Advancing Translational Sciences (NCATS), 2011).
“And” between values parts separate entries of the source, which are not always exact repeats. Identical values can stand only once. The campaign covered roughly 400,000 compounds. About 3,700 (0.93%) were called active. The shares of active, inactive and inconclusive entries below differ from those in the screen. Calls follow the shape of the dose curve; as a rule, active = well fitted inhibition curve with a large enough effect; inconclusive = small, poorly fitted or top-dose-only effect, or another doubt; inactive = no such curve, though single readings can be large or run the other way. A potency beside an inconclusive call is a rough fit, not a confirmed value.

Chains of the proteins cited; added tags and fusions are not shown. Lines headed by an entry give the natural chain unless they say otherwise; changes in a name come on top.
UniProt P11473: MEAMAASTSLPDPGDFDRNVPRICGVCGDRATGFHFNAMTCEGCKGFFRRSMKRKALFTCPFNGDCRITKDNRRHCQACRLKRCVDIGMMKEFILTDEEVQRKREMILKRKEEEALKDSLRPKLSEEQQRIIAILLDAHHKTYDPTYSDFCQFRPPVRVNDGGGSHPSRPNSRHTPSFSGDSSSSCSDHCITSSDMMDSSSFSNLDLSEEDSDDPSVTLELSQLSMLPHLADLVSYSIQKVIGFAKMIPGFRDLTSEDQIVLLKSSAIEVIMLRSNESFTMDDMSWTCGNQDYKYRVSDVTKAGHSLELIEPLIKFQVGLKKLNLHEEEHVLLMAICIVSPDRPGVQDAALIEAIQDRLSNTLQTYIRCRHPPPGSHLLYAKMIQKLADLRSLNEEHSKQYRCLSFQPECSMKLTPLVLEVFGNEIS

Target: Vitamin D3 receptor (Homo sapiens) (UniProt P11473)
Assay: Inhibitors of the vitamin D receptor (VDR): qHTS
Conditions: VDR-SRC2-3 peptide fluorescence polarization, 2 h; max response, negative = inhibition: hits give low values
How it was run: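 FP read-out; VDR + SRC2-3 coactivator peptide; 23 nl compound by pintool; 2 h RT incubation; reagents held at 4 deg C, protected from light.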
% is scaled to controls: 0 for no effect and ±100 for the full control effect; potency is read from the fitted curve at half-maximal effect.

Potency, active:
C=C1C(=O)OC2C=C(C)CCC=C(C)CCC12 (centres undefined) 39.8 µM
Cc1cc(O)c2ccccc2c1O 35.5 µM
NCCOB(c1ccccc1)c1ccccc1 17.8 µM and 10 µM and 14.1 µM
O=C1CCCC(=O)C1CS(=O)(=O)c1ccccc1 39.8 µM
COc1ccc(-c2nc(=S)[nH][nH]2)cc1 79.4 µM
CC(=O)Nc1cccc(C(=O)/C=C/c2ccc(C)cc2)c1 25.1 µM
Cc1ccc(S(=O)(=O)Nc2nsc(N)n2)cc1 7.08 µM
Cn1c(CNC(=O)c2ccc(F)cc2)nc2ccccc21 79.4 µM

Potency, inconclusive:
Cc1[nH][nH]c(=O)c1C(c1ccc(Br)cc1)c1c(C)[nH][nH]c1=O 89.1 µM [inhibitor, partial curve, poor fit]
CC(C)c1ccc(NC(=O)CSc2nc(=O)[nH]c3c2CCCC3)cc1 100 µM [inhibitor, single point]
CC1CC(=O)Nc2ccccc2N1C(=O)CSc1nnnn1C(C)C (centres undefined) 89.1 µM [inhibitor, single point]
O=C1NC(=S)SC1=C1CCCCCC1 70.8 µM [inhibitor, single point]
CC(C)(C)c1cc(C(=S)N2CCCC2)cc(C(C)(C)C)c1O 79.4 µM [inhibitor, partial curve, poor fit]
Cc1ccccc1C(C(=O)NC1CCCCC1)N(C(=O)c1ccccn1)c1cccnc1 (centres undefined) 79.4 µM [inhibitor, partial curve, poor fit]
c1ccc(-c2nc(-c3cccs3)c(NC3CCCCC3)o2)cc1 79.4 µM [inhibitor, single point]
CN(C)Cc1cc(O)c(CN(C)C)cc1O 50.1 µM [inhibitor, partial curve, poor fit]
C=CCn1c(N)c(C(=O)NCCC2=CCCCC2)sc1=S 56.2 µM [inhibitor, partial curve, poor fit]
Cc1cc(C)cc(OCC(=O)NC(C)c2ccccc2)c1 (centres undefined) 89.1 µM [inhibitor, single point]
Cc1ccc(S(=O)(=O)Nc2cccc(-c3ccc(N4CCCCCC4)nn3)c2)c(C)c1 31.6 µM [inhibitor, partial curve, poor fit]
O=C(CNC(=O)c1ccco1)OCC(=O)c1ccc([N+](=O)[O-])cc1 14.1 µM [inhibitor, partial curve, poor fit]
CNC(=O)Nc1cc(C(C)(C)C)no1 35.5 µM [inhibitor, partial curve, poor fit]
NC(=O)c1oc2ccccc2c1NC(=O)CCc1ccccc1 89.1 µM [inhibitor, partial curve, poor fit]
CC1CCc2c(sc3nc(-c4cc5cc(Br)ccc5oc4=O)[nH]c(=O)c23)C1 (centres undefined) 17.8 µM [inhibitor, single point]
CCOc1ccc(NC(=O)c2c(NCc3cccnc3)sc3c2CCCC3)cc1 15.8 µM [inhibitor, single point]
O=C(O)c1cccc2cccc(-c3c4ccc(=O)c(O)c-4oc4c(O)c(O)ccc34)c12 89.1 µM [inhibitor, single point]
Cc1cnc(NC(=O)CSc2nnc(C)n2N)s1 89.1 µM [inhibitor, partial curve, poor fit]
CCOCCCn1c(SCC(=O)Nc2ccc(OC)cc2)nc2ccccc2c1=O 63.1 µM [inhibitor, partial curve, poor fit]
CCOc1cc(/C=C2\C(=O)N(c3cccc(C(F)(F)F)c3)C(=O)c3ccccc32)ccc1O 89.1 µM [inhibitor, partial curve]
Cc1nn(-c2ccccc2)c2c1C(c1ccc(F)cc1)C(C#N)=C(N)O2 (centres undefined) 89.1 µM [inhibitor, single point]
COc1ccc(N(CC(=O)NCC(C)C)S(=O)(=O)c2ccccc2)cc1 89.1 µM [inhibitor, single point]
CC1=C(C/C=C(\C)CCCC(C)CCCC(C)CCCC(C)C)C(=O)c2ccccc2C1=O (centres undefined) 35.5 µM [inhibitor, partial curve]
O=C1NC(=O)/C(=C/c2ccc3c(c2)OC(F)(F)O3)S1 20 µM [inhibitor, full curve]
CCN1/C(=C/C=C/C=C/c2sc3ccccc3[n+]2CC)Sc2ccccc21 63.1 µM [inhibitor, single point]
CC(C(=O)N=Nc1c(O)[nH]c2ccccc12)n1cnc2ccccc2c1=O (centres undefined) 28.2 µM [inhibitor, single point]
O=C(CSc1nccc(=O)[nH]1)N1CCN(c2ccccc2)CC1 79.4 µM [inhibitor, single point]
CCS(=O)(=O)c1ccc(O)c(NC(=O)COc2ccc(C)cc2)c1 79.4 µM [inhibitor, single point]
COc1ccc(C(CNC(=O)c2cccc(S(=O)(=O)Nc3cccc(C)c3)c2)N2CCOCC2)cc1 (centres undefined) 89.1 µM [inhibitor, partial curve, poor fit]
NC(=O)c1c(NC(=S)Nc2ccccc2)sc2c1CCCC2 56.2 µM [inhibitor, partial curve, poor fit]
Cc1sc(NC(=O)C2CCCCC2C(=O)O)c(C(N)=O)c1-c1ccc(C(C)(C)C)cc1 (centres undefined) 50.1 µM [inhibitor, partial curve]
COc1cc(/C=C/[N+](=O)[O-])ccc1OC(=O)/C=C/c1ccc(F)cc1 79.4 µM [inhibitor, single point]
CCCCn1c(SCC(=O)Nc2sc3c(c2C(N)=O)CCC3)nnc1-c1ccccc1 70.8 µM [inhibitor, single point]
O=C1C2C3C=CC(C3)C2C(=O)N1CCN1CCN(Cc2ccc([N+](=O)[O-])cc2)CC1 (centres undefined) 22.4 µM [inhibitor, partial curve, poor fit]
Fc1ccc(Br)cc1SCCc1ccncc1 89.1 µM [inhibitor, single point]
O=C(CSc1ncnc2nc[nH]c12)c1ccc(Cl)cc1 89.1 µM [inhibitor, partial curve, poor fit]
C/C(=N\NC(=S)NC(C)C)c1ccccc1OC(F)F 89.1 µM [inhibitor, single point]
COc1ccc2c(c1)/C(=C\c1cccc(/C=C3/C(=O)Nc4ccc(OC)cc43)n1)C(=O)N2 31.6 µM [inhibitor, single point]
CC(/C=C/C(=O)NO)=C\[C@@H](C)C(=O)c1ccc(N(C)C)cc1 89.1 µM [inhibitor, partial curve, poor fit]
O=C(CN(C1CCCCC1)S(=O)(=O)c1ccc(F)cc1)NCC1CCCO1 (centres undefined) 89.1 µM [inhibitor, single point]
Cc1cc(Cl)ccc1OC(C)C(=O)Nc1ccc(C(=O)Nc2ccccc2C(=O)O)cc1 (centres undefined) 89.1 µM [inhibitor, single point]

Max response, negative = inhibition, inactive:
Cc1c(C(=O)NCc2ccco2)oc2ccc(Br)cc12 -8.23%
Cc1ccc(NC(=O)CS(=O)CC(=O)N(c2ccccc2F)C(C)C(=O)NC2CCCC2)cc1 (centres undefined) 7.85%
O=C(COC(=O)C1CC2C=CC1C2)Nc1c(Br)cc([N+](=O)[O-])cc1Br (centres undefined) -10.6%
CC(=O)c1ccc2c(c1)C1C=CCC1C(C(=O)O)N2 (centres undefined) -16%
O=C(Oc1ccc(C(=S)N2CCOCC2)cc1Cl)c1ccccc1F -29.1%
CCc1ccc(NC(=O)Cn2c(=O)n(CCC(=O)N3CCc4ccccc4C3)c(=O)c3ccccc32)cc1 5.13%
CN(CC(=O)Nc1sccc1C#N)C1CCCCC1 -4.82%
O=C(CSc1nc(C2CC2)n(-c2ccccc2)n1)NCc1ccco1 3.81%
COc1cc(/C=C2/NC(=O)N(Cc3ccccc3F)C2=O)cc(OC)c1O 26.4%
CC(C)CC(=O)N1c2nc(C(C)C)nn2C2(CCCCC2)[C@@H]2CCCC[C@@H]21 11.2%
COc1ccccc1CNC(=O)CCc1c(C)nn(-c2ccc(N3CCOCC3)nn2)c1C 15.2%
Cc1ccc(CNC(=O)c2oc3c(c2C)-c2nn(Cc4ccc(Cl)cc4)cc2CC3)cc1 3.48%
COc1ccc(OCCOC(=O)c2nc3nccc(C)n3n2)cc1 10.9%
Cc1cccc(C)c1NC(=O)CN(c1ccccn1)S(=O)(=O)c1ccccc1 0.664%
COc1cccc(/C=N/NC(=O)c2c(C)nc3ccc(Cl)cn23)c1O -6.56%
Cc1cc(=O)[nH]c2nnc(SCC(=O)Nc3ccc(OC(F)(F)F)cc3)n12 6.93%
CCCCCCCNC(=O)C1(CC2CC(c3ccc(Cl)cc3)=NO2)CCN(C(=O)CCCCCBr)CC1 (centres undefined) -18%
O=C(Oc1cccccc1=O)c1ccccc1 14.1%
C[C@H]1CCC[C@]2(C)C[C@H]3OC(=O)C(CN4CCCCCC4)[C@H]3C=C12 (some centres undefined) -6.22%
CC(/C=C/C(=O)NO)=C\[C@@H](C)C(=O)c1ccc(N(C)C)cc1 3.81%
